We go through 32 compounds from PubChem BioAssay AID330 (DTP/NCI, 2004).

The list shows only some results of the screen, not a fair sample: it gathers tests that were run many times, whatever their T/C, doses with no T/C, and many T/C values between a quarter and a half above the control. Other doses and runs of a compound stand elsewhere. T/C is the treated group as % of the vehicle group. Some entries give survivors of the animals treated and no T/C: the source files T/C as zero there, which appears to mark a toxic dose or a test without result, not a measured value. Some doses without a T/C left all or most animals alive at the check, yet need not have been tolerated: the source hardly ever lists a survival T/C far under the control, and the zero likely stands for such cases as well. Survivors were counted at the toxicity check, usually on the fifth day, unless a day is given; later deaths do not show. Schedule codes are those of the source, read here as Q, the interval in days (D) or hours (H), X, the number of doses. Some entries hold several experiments; the results are listed from low to high. Some structures stand for samples that the source files as different forms (salt, stereo form or complex); doses refer to the form tested. Where survival is the endpoint, this PubChem deposit counts one and a half times the control or more as active, and values a quarter to a half above the control carry no call in these data; other NCI protocols may use other cut-offs.

The test system of this test is P388 leukemia ip, CD2F1 mice, survival T/C. The test can be described thus: NCI In Vivo Anticancer Drug Screen. Data for tumor model P388 Leukemia (intraperitoneal) in CD2F1 (CDF1) mice. The note with it: T/C endpoint: median survival time, higher T/C = longer survival.
Setting [1] is: dose: 200.0 mg/kg/injection, schedule: Q01DX005 (ip), vehicle: saline with Tween-80.
The mark [2] stands for this setting: dose: 50.0 mg/kg/injection, schedule: Q01DX009 (ip), vehicle: saline.
The mark [3] stands for this setting: dose: 100.0 mg/kg/injection, schedule: Q01DX009 (ip), vehicle: saline.
Where [4] appears, read: dose: 200.0 mg/kg/injection, schedule: Q01DX009 (ip), vehicle: saline.
The mark [5] stands for this setting: dose: 50.0 mg/kg/injection, schedule: Q01DX009 (ip), vehicle: Klucel (hydroxypropylcellulose) (HPC).
[6] abbreviates: dose: 100.0 mg/kg/injection, schedule: Q01DX009 (ip), vehicle: Klucel (hydroxypropylcellulose) (HPC).
[7] abbreviates: dose: 200.0 mg/kg/injection, schedule: Q01DX009 (ip), vehicle: Klucel (hydroxypropylcellulose) (HPC).
Setting [8] is: dose: 240.0 mg/kg/injection, schedule: Q01DX005 (ip), vehicle: saline.
The mark [9] stands for this setting: dose: 240.0 mg/kg/injection, schedule: Q01DX005 (ip), vehicle: Klucel (hydroxypropylcellulose) (HPC).
Setting [10] is: dose: 60.0 mg/kg/injection, schedule: Q01DX005 (ip), vehicle: Klucel (hydroxypropylcellulose) (HPC).
The mark [11] stands for this setting: dose: 120.0 mg/kg/injection, schedule: Q01DX005 (ip), vehicle: Klucel (hydroxypropylcellulose) (HPC).

Regarding `CCOC(=O)C(F)C(Br)C(=O)OCC` (stereo not given), the T/C is 130 % of control (dose: 50.0 mg/kg/injection, schedule: Q01DX009 (ip), vehicle: saline with Tween-80) and 133 % of control (dose: 100.0 mg/kg/injection, schedule: Q01DX009 (ip), vehicle: saline with Tween-80). Moreover, the survivor count by setting is: (dose: 200.0 mg/kg/injection, schedule: Q01DX009 (ip), vehicle: saline with Tween-80) 3 of 6; (dose: 400.0 mg/kg/injection, schedule: Q01DX009 (ip), vehicle: saline with Tween-80) 0 of 6.

In the case of `CCCCN=C(N)NN=C(c1ccc(C)cc1)c1ccc(C)cc1`, the survivor count (dose: 100.0 mg/kg/injection, schedule: Q04DX002 (ip), vehicle: saline with Tween-80) is given as 0 of 6.

On to `CN(C)C1C(=O)C(C(N)=O)=C(O)C2(O)C(=O)C3=C(O)c4c(O)cccc4C(C)(O)C3C(O)C12.[Cl][Sb]([Cl])[Cl]` (stereo not given), for which the survivor count under setting [1] was 1 of 6.

Turning to `C(CSC1=NCCN1)CSC1=NCCN1`, the T/C reads like this: under setting [2], 131 % of control; under setting [3], 138 and 142 % of control. Also, the survivor count reads like this: under setting [4], 3 of 6; (dose: 400.0 mg/kg/injection, schedule: Q01DX009 (ip), vehicle: saline) 0 of 6.

Take `N#CC(Cc1ccccc1)c1ccccc1` (stereo not given): the survivor count (dose: 200.0 mg/kg/injection, schedule: Q01DX009 (ip), vehicle: distilled water + Tween-80) was 4 of 6.

For the compound `N=C(N)S(=O)O`, the T/C under setting [3] was 126 % of control.

As to `NNc1cnc2ccccc2n1`, the survivor count (dose: 150.0 mg/kg/injection, schedule: Q01DX009 (ip), vehicle: suspension in saline) was 4 of 6; the survivor count (dose: 150.0 mg/kg/injection, schedule: Q04DX003 (ip), vehicle: saline) is 3 of 6 and 4 of 6.

Turning to `COc1cccc(/C=N/NC(=S)Nc2cc(C(F)(F)F)cc(C(F)(F)F)c2)c1O`, the survivor count is listed as 3 of 5 (dose: 100.0 mg/kg/injection, schedule: Q01DX005 (ip), vehicle: Klucel (hydroxypropylcellulose) (HPC)) and 2 of 5 (dose: 200.0 mg/kg/injection, schedule: Q01DX005 (ip), vehicle: Klucel (hydroxypropylcellulose) (HPC)).

In the case of `Cc1c(-c2ccccc2)ccnc1/C=N/NC(N)=S`, the T/C under setting [2] was 129 and 132 % of control. Under setting [4], the survivor count is listed as 4 of 6.

As for `c1ccc2c(c1)CN1CCN=C1N2`, the survivor count is, setting by setting: under setting [3], 0 of 6; under setting [4], 0 of 6.

With `CC(C)(C)[Si](OC(=O)CCCc1ccc(N(CCCl)CCCl)cc1)(c1ccccc1)c1ccccc1`, the survivor count runs as follows: (dose: 100.0 mg/kg/injection, schedule: Q01DX005 (ip), vehicle: saline with Tween-80) 5 of 5; under setting [1], 0 of 5.

In the case of `CCCCC([Se])=Nc1ccc(Br)cc1`, the survivor count by setting is: under setting [5], 1 of 6; under setting [6], 0 of 6; under setting [7], 0 of 6.

Consider `CCC1CCCCN1C` (stereo not given), for which the survivor count by setting is: under setting [3], 1 of 6; (dose: 200.0 mg/kg/injection, schedule: Q01DX005 (ip), vehicle: saline) 1 of 6.

Consider `CN(N=Nc1ccc(C#N)cc1)C(C)(C)C`, for which, under setting [1], the survivor count is given as 0 of 6.

Turning to `CC1=CCC(CC2CO2)C1(C)C` (stereo not given), the survivor count under setting [4] is 6 of 6.

Consider `O=c1[nH]c(=O)c2cccnc2[nH]1`, for which the T/C reads like this: (dose: 6.25 mg/kg/injection, schedule: Q01DX009 (ip), vehicle: Klucel (hydroxypropylcellulose) (HPC)) 127 % of control; (dose: 12.5 mg/kg/injection, schedule: Q01DX009 (ip), vehicle: Klucel (hydroxypropylcellulose) (HPC)) 127 % of control; (dose: 25.0 mg/kg/injection, schedule: Q01DX009 (ip), vehicle: Klucel (hydroxypropylcellulose) (HPC)) 125 % of control. In addition, under setting [7], the survivor count is listed as 6 of 6.

As for `CC(=O)Nc1ncnc2c1c(C(N)=O)cn2C1OC(COC(C)=O)C(OC(C)=O)C1OC(C)=O` (stereo not given), the T/C (dose: 7.5 mg/kg/injection, schedule: Q01DX005 (ip), vehicle: saline) is 133 % of control. Also, the survivor count is reported as 6 of 6 (dose: 15.0 mg/kg/injection, schedule: Q01DX005 (ip), vehicle: saline); 0 of 6 (dose: 60.0 mg/kg/injection, schedule: Q01DX005 (ip), vehicle: saline); 0 of 6 (dose: 120.0 mg/kg/injection, schedule: Q01DX005 (ip), vehicle: saline); 0 of 6 under setting [8].

As to `CC(=O)c1ccc2c(c1)c1c(C)c3c[n+](C)ccc3c(C)c1n2C`, the T/C runs as follows: (dose: 100.0 mg/kg/injection, schedule: Q01DX001 (ip), vehicle: saline with Tween-80) 133 % of control; (dose: 400.0 mg/kg/injection, schedule: Q01DX001 (ip), vehicle: saline with Tween-80) 149 % of control.

For the compound `O=c1nc2n(c3nccnc13)CCS2`, the survivor count runs as follows: under setting [2], 3 of 6; under setting [3], 0 of 6; under setting [4], 0 of 6.

Regarding `CCCCCC1=C/N\C(C#N)=C(C#N)/N=C/C(CCCCC)=C\N\C(C#N)=C(C#N)/N=C\1`, the survivor count is, setting by setting: under setting [5], 6 of 6; under setting [6], 6 of 6; under setting [7], 6 of 6.

Regarding `CC(=O)[C@]1(O)Cc2c(O)c3c(c(O)c2[C@@H](OC2CC(N)C(O)C(C)O2)C1)C(=O)c1c(OCC(C)C)cccc1C3=O` (stereo not given in full), the T/C was 128 % of control (dose: 12.5 mg/kg/injection, schedule: Q04DX003 (ip), vehicle: water) and 126 % of control (dose: 25.0 mg/kg/injection, schedule: Q04DX003 (ip), vehicle: water).

Turning to `O=C(O)[C@@H](NC(=O)C(Cl)(Cl)Cl)[C@@H]1CC(Br)=NO1`, the T/C (dose: 30.0 mg/kg/injection, schedule: Q01DX005 (ip), vehicle: distilled water + Tween-80) was 127 and 139 % of control; the T/C (dose: 60.0 mg/kg/injection, schedule: Q01DX005 (ip), vehicle: distilled water + Tween-80) is 131 % of control; the T/C (dose: 120.0 mg/kg/injection, schedule: Q01DX005 (ip), vehicle: distilled water + Tween-80) is 140 % of control.

As to `CCCCCCCCCCCCCCCCCC[N+]1([O-])CCCC1`, the survivor count (dose: 100.0 mg/kg/injection, schedule: Q01DX009 (ip), vehicle: water) is recorded as 5 of 6 and the survivor count (dose: 200.0 mg/kg/injection, schedule: Q01DX009 (ip), vehicle: water) was 0 of 4.

Turning to `O=C1CSC(c2c(F)cccc2Cl)N1c1ncccn1` (stereo not given), under setting [9], the survivor count is reported as 0 of 6.

`CSc1cccc(NC(=O)OCCOc2ccc(Br)cc2)c1`: the survivor count runs as follows: under setting [5], 6 of 6; under setting [6], 6 of 6; under setting [7], 6 of 6.

As for `CCCCCCC(=O)/C=C/c1ccc(OC(=O)c2ccc(Cl)cc2)cc1`, the survivor count under setting [2] was 6 of 6.

Consider `CCN(CC)C1=CC(=O)OC1OC` (stereo not given), for which the survivor count under setting [8] was 0 of 6.

In the case of `CN1C(C)(C)CC(O)CC1(C)C`, the survivor count under setting [8] was 2 of 6.

Turning to `CCOC(=O)C1=C(C(=O)c2ccc(OC)cc2)C(c2ccc(Cl)cc2Cl)C(C(=O)c2ccc(OC)cc2)=C(C(=O)OCC)N1`, where the note is “dose: 120.0 mg/kg/injection, schedule: Q01DX005 (ip), vehicle: saline with Tween-80”, the survivor count was 6 of 6.

For `CC1CCC2N(C1)CC1C3(O)CC4(O)C(CCC5C(=O)C(O)CCC54C)C3(O)CC(O)C1(O)C2(C)O` (stereo not given), the survivor count was 2 of 6 (dose: 15.0 mg/kg/injection, schedule: Q01DX005 (ip), vehicle: Klucel (hydroxypropylcellulose) (HPC)); 0 of 6 (dose: 30.0 mg/kg/injection, schedule: Q01DX005 (ip), vehicle: Klucel (hydroxypropylcellulose) (HPC)); 0 of 6 under setting [10]; 0 of 6 under setting [11]; 0 of 6 under setting [9].

Turning to `ClCCN(CCCl)c1ccc(CNCCCNCc2ccc(N(CCCl)CCCl)cc2)cc1`, for the setting “dose: 1.25 mg/kg/injection, schedule: Q01DX009 (ip), vehicle: saline sonified”, the T/C was 142 % of control.

In the case of `O=C1CC2C3C1N(c1ccc(Cl)cc1)C1(Nc4ccc(Cl)cc4)C(=O)CC(C31)N2c1ccc(Cl)cc1` (stereo not given), the survivor count by setting is: under setting [10], 6 of 6; under setting [11], 6 of 6; under setting [9], 6 of 6.
